Source: the supplement of paper PMC8728848
Some of the results follow.

Experiments:
Test in all cases: glycan array binding signal (z-score within array); higher = stronger binding
Settings in all cases: glycan notation: IUPAC condensed, linker removed
Gal3S(b1-4)Glc = target: Gal3S(b1-4)Glc
Summary of the method: (§1)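 Columns mapping to the same glycan were averaged after glycan names were converted to IUPAC-condensed notation. The data come from 3228 arrays in the Consortium for Functional Glycomics database, limited to those with an available protein sequence. Binding is reported as a within-array Z-score averaged across arrays of one protein sequence and across linkers.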

Gal3S(b1-4)Glc6S = target: Gal3S(b1-4)Glc6S
Summary of the method: as §1

Gal3S(b1-4)GlcNAc = target: Gal3S(b1-4)GlcNAc
Summary of the method: as §1

[1] = target: Gal3S(b1-4)[Fuc(a1-3)]Glc6S
Summary of the method: as §1

[2] = target: Gal3S(b1-4)[Fuc(a1-3)]GlcNAc
Summary of the method: as §1

[3] = target: Gal3S(b1-4)[Fuc(a1-3)]GlcNAc6S
Summary of the method: as §1

Gal3S4S(b1-4)GlcNAc = target: Gal3S4S(b1-4)GlcNAc
Summary of the method: as §1

Gal3S6S(b1-4)GlcNAc = target: Gal3S6S(b1-4)GlcNAc
Summary of the method: as §1

Gal3S6S(b1-4)GlcNAc6S = target: Gal3S6S(b1-4)GlcNAc6S
Summary of the method: as §1

Gal4S(b1-4)GlcNAc = target: Gal4S(b1-4)GlcNAc
Summary of the method: as §1

Gal4S6S(b1-4)GlcNAc = target: Gal4S6S(b1-4)GlcNAc
Summary of the method: as §1

Gal6P(b1-4)GlcNAc = target: Gal6P(b1-4)GlcNAc
Summary of the method: as §1

Gal6S(b1-3)GlcNAc = target: Gal6S(b1-3)GlcNAc
Summary of the method: as §1

Gal6S(b1-3)GlcNAc6S = target: Gal6S(b1-3)GlcNAc6S
Summary of the method: as §1

Gal6S(b1-4)Glc = target: Gal6S(b1-4)Glc
Summary of the method: as §1

Gal6S(b1-4)Glc6S = target: Gal6S(b1-4)Glc6S
Summary of the method: as §1

Gal6S(b1-4)GlcNAc = target: Gal6S(b1-4)GlcNAc
Summary of the method: as §1

Gal6S(b1-4)GlcNAc6S = target: Gal6S(b1-4)GlcNAc6S
Summary of the method: as §1

GalNAc(a1-3)Gal = target: GalNAc(a1-3)Gal
Summary of the method: as §1

GalNAc(a1-3)GalNAc = target: GalNAc(a1-3)GalNAc
Summary of the method: as §1

[4] = target: GalNAc(a1-3)GalNAc(b1-3)Gal(a1-4)Gal(b1-4)Glc
Summary of the method: as §1

[5] = target: GalNAc(a1-3)GalNAc(b1-3)Gal(a1-4)Gal(b1-4)GlcNAc
Summary of the method: as §1

GalNAc(b1-3)Gal = target: GalNAc(b1-3)Gal
Summary of the method: as §1

[6] = target: GalNAc(b1-3)Gal(a1-4)Gal(b1-4)GlcNAc
Summary of the method: as §1

[7] = target: GalNAc(b1-3)Gal(a1-4)Gal(b1-4)GlcNAc(b1-3)Gal(b1-4)Glc
Summary of the method: as §1

[8] = target: GalNAc(b1-3)Gal(a1-6)Gal(b1-4)Glc
Summary of the method: as §1

GalNAc(b1-3)GalNAc = target: GalNAc(b1-3)GalNAc
Summary of the method: as §1

GalNAc(b1-3)GlcNAc = target: GalNAc(b1-3)GlcNAc
Summary of the method: as §1

GalNAc(b1-4)Gal(b1-4)Glc = target: GalNAc(b1-4)Gal(b1-4)Glc
Summary of the method: as §1

GalNAc(b1-4)GlcNAc = target: GalNAc(b1-4)GlcNAc
Summary of the method: as §1

[9] = target: GalNAc(b1-4)GlcNAc(b1-2)Man
Summary of the method: as §1

[10] = target: GalNAc(b1-4)GlcNAc(b1-2)Man(a1-3)[GalNAc(b1-4)GlcNAc(b1-2)Man(a1-6)]Man(b1-4)GlcNAc(b1-4)GlcNAc
Summary of the method: as §1

[11] = target: GalNAc(b1-4)GlcNAc(b1-3)GalNAc(b1-4)GlcNAc
Summary of the method: as §1

GalNAc(b1-4)GlcNAc6S = target: GalNAc(b1-4)GlcNAc6S
Summary of the method: as §1

GalNAc(b1-6)GalNAc = target: GalNAc(b1-6)GalNAc
Summary of the method: as §1

GalNAc3S(b1-4)GlcNAc = target: GalNAc3S(b1-4)GlcNAc
Summary of the method: as §1

GalNAc3S(b1-4)GlcNAc3S = target: GalNAc3S(b1-4)GlcNAc3S
Summary of the method: as §1

B1: Sp8391B-bot-388-20-388 (Bacteroides ovatus) (protein)
chain: GCQNNDENEQHYDNKLFISASNFTKEILFKAGDTNVETGLSVAIAKPEEHDIKVTMSPAPELLSTYKLAYYDETAVLLSEEHYSMPETSTTIKSGSIVSPELPIEFINTGELDIKTTYVLPVTIKSVEGIGVLQSAKTYYYVFRGASLINVVCNISRNRAYPDFKNDSKFNNLTENTMEILFKANSFPNTLNTLMGIESNYLLRIGDATIPNNQLQVATSVNNCTSADLQLESGKWYHVAVAFNKGNVKVYINGVEKLSGSTGKSSVSLGAKHTNEEDGSRCFWVGYSYKDDRYFDGVVSEVRIWNRALTAEEIQATNHFYTIEPESEGLIAYWKFDEGSGTVAKDYSVSGYDLTIEKEPKWESVSLPQ
Question: With B1 as the binder, how does the “glycan array binding signal (z-score)” value (Gal3S(b1-4)Glc) read?
Answer: 0.8

Question: And the “glycan array binding signal (z-score)” value (Gal3S(b1-4)Glc6S)?
Answer: -0.255

Question: What about the “glycan array binding signal (z-score)” value (Gal3S(b1-4)GlcNAc) of the same binder?
Answer: 0.727

Question: What about the “glycan array binding signal (z-score)” value [1] of the same binder?
Answer: -0.067

Question: And the “glycan array binding signal (z-score)” value [2]?
Answer: 0.249

Question: What about the “glycan array binding signal (z-score)” value [3] of the same binder?
Answer: 0.804

Question: And the “glycan array binding signal (z-score)” value (Gal3S4S(b1-4)GlcNAc)?
Answer: -0.278

Question: And the “glycan array binding signal (z-score)” value (Gal3S6S(b1-4)GlcNAc)?
Answer: -0.221

Question: What about the “glycan array binding signal (z-score)” value (Gal3S6S(b1-4)GlcNAc6S) of the same binder?
Answer: -0.031

Question: And the “glycan array binding signal (z-score)” value (Gal4S(b1-4)GlcNAc)?
Answer: -0.388

Question: And the “glycan array binding signal (z-score)” value (Gal4S6S(b1-4)GlcNAc)?
Answer: -0.48

Question: What about the “glycan array binding signal (z-score)” value (Gal6P(b1-4)GlcNAc) of the same binder?
Answer: -0.405

Question: And the “glycan array binding signal (z-score)” value (Gal6S(b1-3)GlcNAc)?
Answer: -0.708

Question: And the “glycan array binding signal (z-score)” value (Gal6S(b1-3)GlcNAc6S)?
Answer: 0.217

Question: And the “glycan array binding signal (z-score)” value (Gal6S(b1-4)Glc)?
Answer: -0.185

Question: And the “glycan array binding signal (z-score)” value (Gal6S(b1-4)Glc6S)?
Answer: -0.063

Question: And the “glycan array binding signal (z-score)” value (Gal6S(b1-4)GlcNAc)?
Answer: -0.679

Question: And the “glycan array binding signal (z-score)” value (Gal6S(b1-4)GlcNAc6S)?
Answer: -0.591

Question: What about the “glycan array binding signal (z-score)” value (GalNAc(a1-3)Gal) of the same binder?
Answer: -0.131

Question: What about the “glycan array binding signal (z-score)” value (GalNAc(a1-3)GalNAc) of the same binder?
Answer: -0.295

Question: What about the “glycan array binding signal (z-score)” value [4] of the same binder?
Answer: -1.01

Question: What about the “glycan array binding signal (z-score)” value [5] of the same binder?
Answer: 1.69

Question: What about the “glycan array binding signal (z-score)” value (GalNAc(b1-3)Gal) of the same binder?
Answer: -0.079

Question: And the “glycan array binding signal (z-score)” value [6]?
Answer: -0.265

Question: What about the “glycan array binding signal (z-score)” value [7] of the same binder?
Answer: 0.152

Question: And the “glycan array binding signal (z-score)” value [8]?
Answer: -0.567

Question: What about the “glycan array binding signal (z-score)” value (GalNAc(b1-3)GalNAc) of the same binder?
Answer: 0.041

Question: And the “glycan array binding signal (z-score)” value (GalNAc(b1-3)GlcNAc)?
Answer: 0.354

Question: What about the “glycan array binding signal (z-score)” value (GalNAc(b1-4)Gal(b1-4)Glc) of the same binder?
Answer: 0.821

Question: What about the “glycan array binding signal (z-score)” value (GalNAc(b1-4)GlcNAc) of the same binder?
Answer: -0.79

Question: What about the “glycan array binding signal (z-score)” value [9] of the same binder?
Answer: -0.586

Question: And the “glycan array binding signal (z-score)” value [10]?
Answer: 1.65

Question: What about the “glycan array binding signal (z-score)” value [11] of the same binder?
Answer: 0.716

Question: And the “glycan array binding signal (z-score)” value (GalNAc(b1-4)GlcNAc6S)?
Answer: -1.03

Question: What about the “glycan array binding signal (z-score)” value (GalNAc(b1-6)GalNAc) of the same binder?
Answer: 0.407

Question: And the “glycan array binding signal (z-score)” value (GalNAc3S(b1-4)GlcNAc)?
Answer: -0.773

Question: What about the “glycan array binding signal (z-score)” value (GalNAc3S(b1-4)GlcNAc3S) of the same binder?
Answer: -0.067
